# Laboratory results from patent publication US20230181614A1, “ADMINISTRATION OF CITICOLINE TO IMPROVE COGNITIVE PERFORMANCE, ATTENTIONAL PERFORMANCE, AND MOTOR FUNCTION” (KYOWA HAKKO BIO CO., LTD., priority 2014, published 2023).
# At least one compound was matched to its structure with a doubt left.
# How the values were obtained:
# [1] = test system: Healthy subjects, ages 13-18; assay: Rey-Osterreith Complex Figure Test (ROCFT) / Modified Taylor Complex Figure; type: in vivo, human
# Description: Study participants were screened by telephone prior to study enrollment. Healthy subjects, ages 13-18, with no significant medical conditions and no history of co-morbid psychiatric disorder, current Axis I or II diagnosis, or previous participation in a pharmacotherapeutic trial, were selected. Use of any psychotropic medication or any previous head injury resulting in loss of consciousness for 5 or more minutes were used as exclusion criteria. While no participant met criteria for a neuropsychiatric disorder at enrollment, clinical assessments were still completed throughout the study to evaluate changes in mood state. In addition, self-reports of sleep habits, lifestyle, and exercise routines were also administered at baseline as well as at each study visit to assess changes in health habits during study participation. Following the completion of Visit 1 assessment, participants were given their 28-day supply of citicoline (250 mg or 500 mg) or placebo, which was randomly assigned. They were instructed to take one capsule a day every day for the next 28 days. Visit 2 occurred fourteen days after Visit 1. At Visit 2, the remaining study pills were counted and participant dosage calendars were checked to ensure compliance with the protocol. Additional neuropsychological measures and clinical assessments were administered during this visit. Participants returned for Visit 3 fourteen days later, on the 28th day of their study participation. The pill bottle and the dosage calendar were collected from each participant. Urine and blood were again obtained. Participants also participated in similar clinical and neuropsychological testing and clinical measures that were given during visit 1. The ROCFT is an assessment of visuo-organizational ability, visual attention, and visual memory. The participant is asked to copy a complex 2-dimensional figure with the stimulus or complex figure in front of them (Copy Trial), immediately after the stimulus has been removed (Short Delay Trial), and after 30 minutes without the stimulus present (Long Delay Trial). The figure produced at each trial is then evaluated for the strategy used in reproducing the figure, constructional accuracy, and placement of elements within the figure. The Copy, Short Delay, and Long Delay trials are each scored on the number of elements that have been correctly recalled and the accuracy and placement of each element. The Difference Score between immediate and delayed performance scores is a measure of temporary decay for visuospatial memory. This test was administered on both the first and the third visits. The Modified Taylor Complex Figure (MTCF) is an alternate form of the ROCFT to assess visuo-organizational ability, visual attention, and visual memory. The same procedure was used to administer the MTCF. The MTCF was administered at the second visit instead of the ROCFT to minimize the effect of repeat testing on copy and retention of the figure across visits.
# [2] = test system: Healthy subjects, ages 13-18; assay: ADHD Rating Scale (ARS); type: in vivo, human; conditions: for ARS inattention and impulsivity difference scores, between groups / ARS impulsivity, within-group change / ARS inattention, within-group change: visit 1 to visit 3
# Description: Study participants were screened by telephone prior to study enrollment. Healthy subjects, ages 13-18, with no significant medical conditions and no history of co-morbid psychiatric disorder, current Axis I or II diagnosis, or previous participation in a pharmacotherapeutic trial, were selected. Use of any psychotropic medication or any previous head injury resulting in loss of consciousness for 5 or more minutes were used as exclusion criteria. While no participant met criteria for a neuropsychiatric disorder at enrollment, clinical assessments were still completed throughout the study to evaluate changes in mood state. In addition, self-reports of sleep habits, lifestyle, and exercise routines were also administered at baseline as well as at each study visit to assess changes in health habits during study participation. Following the completion of Visit 1 assessment, participants were given their 28-day supply of citicoline (250 mg or 500 mg) or placebo, which was randomly assigned. They were instructed to take one capsule a day every day for the next 28 days. Visit 2 occurred fourteen days after Visit 1. At Visit 2, the remaining study pills were counted and participant dosage calendars were checked to ensure compliance with the protocol. Additional neuropsychological measures and clinical assessments were administered during this visit. Participants returned for Visit 3 fourteen days later, on the 28th day of their study participation. The pill bottle and the dosage calendar were collected from each participant. Urine and blood were again obtained. Participants also participated in similar clinical and neuropsychological testing and clinical measures that were given during visit 1. The ARS is a questionnaire assessing the frequency of DSM-IV-TR symptoms of ADHD in children including inattention, impulsivity, and hyperactivity. The scale was administered at each of the three visits to assess presence or absence of ADHD symptoms.
compound,measurement,setting,value
"C[N+](C)(C)CCOP(=O)(O)OP(=O)([O-])OC[C@H]1O[C@@H](n2ccc(N)nc2=O)[C@H](O)[C@@H]1O [citicoline, Cytidine 5′-diphosphocholine]","ROCFT difference between visits 1 and 3 (Copy, Immediate, Delayed, Difference), between groups","[1]; 250 mg/day vs 500 mg/day, p=1.00, 0.86, 0.26, 0.26",no significant differences
same,"ROCFT Copy, Immediate, Delayed, Difference Raw Score, between groups","[1]; 250 mg/day vs 500 mg/day, time 3, p=0.68, 0.26, 0.14, 0.31",no significant differences
same,"ROCFT difference between visits 1 and 3 (Copy, Immediate, Delayed, Difference), between groups","[1]; 250 mg/day vs Placebo, p=0.65, 0.79, 0.34, 0.35",no significant differences
same,"ROCFT Immediate, Delayed and Difference Raw Score, within-group change","[1]; 250 mg/day, visit 1 to visit 3, p<0.01, <0.01, 0.03",significant improvement
same,"ROCFT Copy Raw Score, within-group change","[1]; 250 mg/day, visit 1 to visit 3, p=0.38",no significant improvement
same,"ROCFT Immediate and Delayed Raw Score, within-group change","[1]; 500 mg/day, visit 1 to visit 3, p<0.01, p<0.01",significant improvement
same,"ROCFT Copy and Difference Raw Score, within-group change","[1]; 500 mg/day, visit 1 to visit 3, p=0.38, p=0.44",no significant improvements
same,"ROCFT difference between visits 1 and 3 (Copy, Immediate, Delayed, Difference), between groups","[1]; Placebo vs 500 mg/day, p=0.64, 0.92, 0.88, 0.78",no significant differences
same,"ROCFT Copy, Immediate, Delayed, Difference Raw Score, between groups","[1]; Placebo vs 500 mg/day, time 3, p=0.43, 0.25, 0.24, 0.96",no significant differences
same,"ROCFT difference between visits 1 and 3 (Copy, Immediate, Delayed, Difference), all three groups","[1]; p=0.44, 0.48, 0.23, 0.23",no significant differences
same,"ROCFT Copy, Immediate, Delayed, Difference Raw Score, between groups","[1]; printed 250 mg/day vs 500 mg/day, Table 76a, time 3, p=0.69, 0.99, 0.60, 0.30",no significant differences
same,"ROCFT Copy, Immediate, Delayed, Difference Raw Score, all three groups","[1]; time 3, p=0.36, 0.19, 0.11, 0.25",no significant differences
same,"ARS inattention and impulsivity difference scores, between groups","[2]; 250 mg/day vs 500 mg/day, p=0.27, p=0.77",No significant differences
same,"ARS impulsivity, between groups","[2]; 250 mg/day vs 500 mg/day, visit 3, p=0.13",no significant differences
same,"ARS inattention and impulsivity difference scores, between groups","[2]; 250 mg/day vs Placebo, p=0.10, p=0.26",No significant differences
same,"ARS impulsivity, between groups","[2]; 250 mg/day vs Placebo, visit 3, p=0.56",no significant differences
same,"ARS impulsivity, within-group change","[2]; 250 mg/day, p<0.01",significant declines
same,"ARS inattention, within-group change","[2]; 250 mg/day, p=0.17",no improvement
same,"ARS inattention, within-group change","[2]; 500 mg/day, p=0.28",no improvement
same,"ARS inattention and impulsivity difference scores, between groups","[2]; Placebo vs 500 mg/day, p=0.61, p=0.39",No significant differences
same,"ARS inattention and impulsivity, between groups","[2]; Placebo vs 500 mg/day, visit 3, p=0.46, p=0.48",no significant difference
same,"ARS impulsivity, within-group change","[2]; group printed as 250 mg/day, Table 25, p=0.02",significant declines
same,"ARS inattention and impulsivity difference scores, overall","[2]; three groups, p=0.11, p=0.25",no significant differences
same,"ARS inattention, overall analysis","[2]; three groups, visit 3, p<0.01",significant differences
same,"ARS impulsivity, overall analysis","[2]; three groups, visit 3, p=0.20",No significant differences
same,"ARS inattention, Placebo relative to 250 mg/day","[2]; visit 3, p<0.01",significantly lower scores
same,"ARS inattention, post-hoc, 500 mg/day and Placebo relative to 250 mg/day","[2]; visit 3, p<0.01, p<0.01",significantly lower scores
same,"ARS inattention, 500 mg/day relative to 250 mg/day","[2]; visit 3, p=0.01",significantly lower scores
